Reference: patent US20050009042A1 (AVENTIS PHARMA S A, published 2005)
These are yes or no findings as the source states them, for the method shown. For part of these data: Binding can be weak; no strength is given. Sequences can lack the tags named with a protein.

Key:
OB-Rs-YFP = assay: BRET in living cells, equimolar coexpression
β-arrestine2-YFP = assay: BRET in living HEK cells, equimolar coexpression

Binder | binding (OB-Rs-YFP) | binding (β-arrestine2-YFP)
OB-RGRP-Luc (other, Expressed in cells from pcDNA3-OB-RGRP-Luc; also called OB-RGRP-Rluc; not shown: Renilla luciferase, coding region from vector pRL-CMV (Promega)) MAGVKALVALSFSGAIGLTFLMLGCALEDYGVYWPLFVLIFHAISPIPHFIAKRVTYDSDATSSACRELAYFFTTGIVVSAFGFPVILARVAVIKWGACGLVLAGNAVIFLTIQGFFLIFGRGDDFSWEQW | binds | no binding
MYO47-Luc (other, also called MY047-Rluc; not shown: Renilla luciferase (vector pcDNA3-Rluc)) MAGIKALISLSFGGAIGLMFLMLGCALPIYNKYWPLFVLFFYILSPIPYCIARRLVDDTDAMSNACKELAIFLTTGIVVSAFGLPIVFARAHLIEWGACALVLTGNTVIFATILGFFLVFGSNDDFSWQQW | binds | –
